Source: patent US20100286152A1, “N-PHENYL HYDRAZIDES AS MODULATORS OF THE GHRELIN RECEPTOR” (Glaxo Group Limited, priority 2007, published 2010)
Some of these results come from one statement about several compounds together.

Sequences of proteins named here, by UniProt entry; tags and fusion partners are left off.
UniProt Q92847, whole entry: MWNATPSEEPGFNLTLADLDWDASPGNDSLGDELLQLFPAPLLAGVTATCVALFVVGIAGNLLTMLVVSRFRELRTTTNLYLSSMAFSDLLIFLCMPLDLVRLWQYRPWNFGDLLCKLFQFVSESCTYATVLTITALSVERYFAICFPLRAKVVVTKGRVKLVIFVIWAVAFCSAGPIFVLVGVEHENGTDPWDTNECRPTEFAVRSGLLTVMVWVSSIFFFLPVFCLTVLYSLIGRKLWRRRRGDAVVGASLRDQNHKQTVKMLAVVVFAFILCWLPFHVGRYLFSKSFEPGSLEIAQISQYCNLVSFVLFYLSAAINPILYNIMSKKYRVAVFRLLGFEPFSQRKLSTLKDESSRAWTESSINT

Tests used:
[1] = molecular target: T1, human GHSR (Human GHRS BacMam membranes) (Homo sapiens, UniProt Q92847); experiment: hGHSR Antagonist GTPγS SPA Assay; assay type: biochemical; conditions: [35S]GTPγS binding, EC80 human ghrelin
T1 construct: The full-length gene was transferred into pCDN for expression analysis; expressed in transfected cells; host or cells: Membranes of BacMam-transduced cells

[2] = molecular target: T2, Human GHS-R (ghrelin receptor) (Homo sapiens, UniProt Q92847); experiment: GHSR Antagonist BACMAM FLIPR Assay; assay type: cell-based; conditions: U2OS cells transiently expressing human GHS-R; inhibition of EC80 concentration of hGhrelin; FLIPR fluorescence
T2 construct: The full-length gene was transferred into pCDN for expression analysis; expressed in transfected cells; host or cells: U2OS cells transduced with human GHSR BacMam virus

Structure (SMILES)	pIC50 [1]	pIC50 [2]
O=C(NNc1cc(C(F)(F)F)cc(C(F)(F)F)c1)C(c1nccs1)N1CCN2CCC[C@@H]2C1 (mixture of isomers) [Compound 98, N′-[3,5-bis(trifluoromethyl)phenyl]-2-[(8aR)-hexahydropyrrolo[1,2-a]pyrazin-2(1H)-yl]-2-(1,3-thiazol-2-yl)acetohydrazide (Diastereomeric mixture)]	greater than 5.5	
Cc1cccc(C(C(=O)NNc2cc(C(F)(F)F)cc(C(F)(F)F)c2)N2CCN3CCCC3(C)C2)c1 (mixture of isomers) [Compound 99, N′-[3,5-bis(trifluoromethyl)phenyl]-2-(8a-methylhexahydropyrrolo[1,2-a]pyrazin-2(1H)-yl)-2-(3-methylphenyl)acetohydrazide]	greater than 5.5	
CCOc1ccccc1C(C(=O)NNc1cc(C(F)(F)F)cc(C(F)(F)F)c1)N1CCN2CCC[C@@H]2C1 (mixture of isomers) [Compound 103, N′-[3,5-bis(trifluoromethyl)phenyl]-2-[2-(ethyloxy)phenyl]-2-[(8aR)-hexahydropyrrolo[1,2-a]pyrazin-2(1H)-yl]acetohydrazide]	greater than 5.5	
Cc1cccc(C(C(=O)NNc2cc(C(F)(F)F)cc(C(F)(F)F)c2)N2CCN3CCC[C@@H]3C2)c1 (mixture of isomers) [Compound 110, N′-[3,5-bis(trifluoromethyl)phenyl]-2-[(8aR)-hexahydropyrrolo[1,2-a]-pyrazin-2(1H)-yl]-2-(3-methylphenyl)acetohydrazide]	greater than 5.5	
Cc1ccccc1C(C(=O)NNc1cc(C(F)(F)F)cc(C(F)(F)F)c1)N1CCN2CCC[C@@H]2C1 (mixture of isomers) [Compound 114, N′-[3,5-bis(trifluoromethyl)phenyl]-2-[(8aR)-hexahydropyrrolo[1,2-a]-pyrazin-2(1H)-yl]-2-(2-methylphenyl)acetohydrazide]	greater than 5.5	
CC(C)c1ccccc1C(C(=O)NNc1cc(C(F)(F)F)cc(C(F)(F)F)c1)N1CCN2CCC[C@@H]2C1 (mixture of isomers) [Compound 116, N′-[3,5-bis(trifluoromethyl)phenyl]-2-[(8aR)-hexahydropyrrolo[1,2-a]pyrazin-2(1H)-yl]-2-[2-(1-methylethyl)phenyl]acetohydrazide]	greater than 5.5	
CCc1ccccc1C(C(=O)NNc1cc(C(F)(F)F)cc(C(F)(F)F)c1)N1CCN2CCC[C@@H]2C1 (single isomer, unassigned) [Compound 101]	greater than 5.5	
Cc1cc(F)ccc1C(C(=O)NNc1cc(C(F)(F)F)cc(C(F)(F)F)c1)N1CCN2CCC[C@@H]2C1 (single isomer, unassigned) [Compound 105]	greater than 5.5	
Cc1ccc(C(C(=O)NNc2cc(C(F)(F)F)cc(C(F)(F)F)c2)N2CCN3CCC[C@@H]3C2)nc1 (single isomer, unassigned) [Compound 106]	greater than 5.5	
COc1ccc(C(C(=O)NNc2cc(C(F)(F)F)cc(C(F)(F)F)c2)N2CCN3CCC[C@@H]3C2)c(C)c1 (single isomer, unassigned) [Compound 109]	greater than 5.5	
COc1ccccc1C(C(=O)NNc1cc(C(F)(F)F)cc(C(F)(F)F)c1)N1CCN2CCC[C@@H]2C1 (single isomer, unassigned) [Compound 113]	greater than 5.5	
Cc1ccccc1C(C(=O)NNc1cc(C(F)(F)F)cc(C(F)(F)F)c1)N1CCN2CCC[C@@H]2C1 (single isomer, unassigned) [Compound 115]	greater than 5.5	
CC(C)c1ccccc1C(C(=O)NNc1cc(C(F)(F)F)cc(C(F)(F)F)c1)N1CCN2CCC[C@@H]2C1 (single isomer, unassigned) [Compound 117]	greater than 5.5	
O=C(NNc1cc(C(F)(F)F)cc(C(F)(F)F)c1)C(c1cc[nH]n1)N1CCN2CCC[C@@H]2C1 (single isomer, unassigned) [Compound 119]	greater than 5.5	
O=C(NNc1cc(C(F)(F)F)cc(C(F)(F)F)c1)C(c1ccccc1F)N1CCN2CCC[C@@H]2C1 (single isomer, unassigned) [Compound 121]	greater than 5.5	
O=C(NNc1cc(C(F)(F)F)cc(C(F)(F)F)c1)C(c1cncnc1)N1CCN2CCC[C@@H]2C1 (single isomer, unassigned) [Compound 123]	greater than 5.5	

Structure (SMILES)	pIC50 [1]	pIC50 [2]
Cn1cncc1C(C(=O)NNc1cc(C(F)(F)F)cc(C(F)(F)F)c1)N1CCN2CCC[C@@H]2C1 (single isomer, unassigned) [Compound 125]	greater than 5.5	
O=C(NNc1cc(C(F)(F)F)cc(C(F)(F)F)c1)C(c1ccc(Br)nc1Br)N1CCN2CCC[C@@H]2C1 (single isomer, unassigned) [Compound 132]	greater than 5.5	
CN1CCN(C(C(=O)NNc2cc(C(F)(F)F)cc(C(F)(F)F)c2)c2ncccc2Cl)CC1 (single isomer, unassigned; enantiomer 1) [Compound 59, N′-[3,5-bis(trifluoromethyl)phenyl]-2-(3-chloro-2-pyridinyl)-2-(4-methyl-1-piperazinyl)acetohydrazide-enantiomer 1]		greater than 5.5
O=C(NNc1cc(C(F)(F)F)cc(C(F)(F)F)c1)C(c1ccccn1)N1CCNCC1 (single isomer, unassigned; enantiomer 1) [Compound 61, N′-[3,5-bis(trifluoromethyl)phenyl]-2-(1-piperazinyl)-2-(2-pyridinyl)acetohydrazide-enantiomer 1]		greater than 5.5
Cc1ccnc(C(C(=O)NNc2cc(C(F)(F)F)cc(C(F)(F)F)c2)N2CCN(C)CC2)c1 (single isomer, unassigned; enantiomer 1) [Compound 63, N′-[3,5-bis(trifluoromethyl)phenyl]-2-(4-methyl-1-piperazinyl)-2-(4-methyl-2-pyridinyl)acetohydrazide-enantiomer 1]		greater than 5.5
Cc1cccc(C(C(=O)NNc2cc(C(F)(F)F)cc(C(F)(F)F)c2)N2CCN(C)CC2)n1 (single isomer, unassigned; enantiomer 1) [Compound 65, N′-[3,5-bis(trifluoromethyl)phenyl]-2-(4-methyl-1-piperazinyl)-2-(6-methyl-2-pyridinyl)acetohydrazide-enantiomer 1]		greater than 5.5
CN1CCN(C(C(=O)NNc2cc(C(F)(F)F)cc(C(F)(F)F)c2)c2ccccn2)CC1 (single isomer, unassigned; enantiomer 1) [Compound 67, N′-[3,5-bis(trifluoromethyl)phenyl]-2-(4-methyl-1-piperazinyl)-2-(2-pyridinyl)acetohydrazide-enantiomer 1]		greater than 5.5
CN1CCC(C(C(=O)NNc2cc(Cl)cc(Cl)c2)c2ccc3c(c2)OCO3)CC1 (single isomer, unassigned; enantiomer 1) [Compound 70, 2-(1,3-benzodioxol-5-yl)-N′-(3,5-dichlorophenyl)-2-(1-methyl-4-piperidinyl)-acetohydrazide-enantiomer 1]		greater than 5.5
CN1CCC(C(C(=O)NNc2cc(Cl)cc(Cl)c2)c2cccc3ccccc23)CC1 (single isomer, unassigned; enantiomer 1) [Compound 73, N′-(3,5-dichlorophenyl)-2-(1-methyl-4-piperidinyl)-2-(1-naphthalenyl)-acetohydrazide-enantiomer 1]		greater than 5.5
CN1CCN(C(C(=O)NNc2cc(C(F)(F)F)cc(C(F)(F)F)c2)c2cncnc2)CC1 (single isomer, unassigned; enantiomer 1) [Compound 78, N′-[3,5-bis(trifluoromethyl)phenyl]-2-(4-methyl-1-piperazinyl)-2-(5-pyrimidinyl)acetohydrazide-enantiomer 1]		greater than 5.5
CN1CCN(C(C(=O)NNc2cc(Cl)cc(Cl)c2)c2ccc3c(c2)OCO3)CC1.Cl (single isomer, unassigned; enantiomer 2) [Compound 47, 2-(1,3-benzodioxol-5-yl)-N′-(3,5-dichlorophenyl)-2-(4-methyl-1-piperazinyl)-acetohydrazide hydrochloride-enantiomer 2]		greater than 5.5
Cl.O=C(NNc1cc(C(F)(F)F)cc(C(F)(F)F)c1)C(c1ccccc1Cl)N1CCNCC1 (single isomer, unassigned; enantiomer 2) [Compound 75, (+)-N′-[3,5-bis(trifluoromethyl)phenyl]-2-(2-chlorophenyl)-2-(1-piperazinyl)acetohydrazide hydrochloride-enantiomer 2]		greater than 5.5
CCc1ccccc1C(C(=O)NNc1cc(C(F)(F)F)cc(C(F)(F)F)c1)N1CCN2CCC[C@@H]2C1 (stereo partly drawn) [Compound 100, N′-[3,5-bis(trifluoromethyl)phenyl]-2-(2-ethylphenyl)-2-[(8aR)-hexahydro-pyrrolo[1,2-a]pyrazin-2(1H)-yl]acetohydrazide]	greater than 5.5	
O=C(NNc1cc(C(F)(F)F)cc(C(F)(F)F)c1)C(c1cccnc1Cl)N1CCN2CCC[C@@H]2C1 (stereo partly drawn) [Compound 104, N′-[3,5-bis(trifluoromethyl)phenyl]-2-(2-chloro-3-pyridinyl)-2-[(8aR)-hexahydropyrrolo[1,2-a]pyrazin-2(1H)-yl]acetohydrazide]	greater than 5.5	
Cc1cccc(C(C)(C(=O)NNc2cc(C(F)(F)F)cc(C(F)(F)F)c2)N2CCN3CCC[C@@H]3C2)n1 (stereo partly drawn) [Compound 107, N′-[3,5-bis(trifluoromethyl)phenyl]-2-[(8aR)-hexahydropyrrolo[1,2-a]pyrazin-2(1H)-yl]-2-(6-methyl-2-pyridinyl)propanohydrazide]	greater than 5.5	
